Assay results from patent publication US20120045392A1.
Results are given in words; binding and its absence hold for the method and conditions named. Some results given as binding are weak or reduced against the parent protein; the word gives no strength.

Columns and labels:
pyro-Glu(3-40/42)-Aβ [1] = assay: summary of SPR / Europium ELISA, monomers
pyro-Glu(3-40/42)-Aβ [2] = assay: SPR / Europium ELISA, monomers
pyro-Glu(3-40/42)-Aβ [3] = assay: immunostaining of APPswe/PS1dE9 mouse brain sections, PGA5 at 1:100 (FIG. 3)
[4] = molecular target: pyro-Glu(3-40/42) fibrils; assay: summary of SPR / Europium ELISA, fibrils
pyro-Glu(3-40/42)-Aβ [5] = assay: SPR / Europium ELISA
[6] = molecular target: pyro-Glu(3-40/42) fibrils; assay: SPR / Europium ELISA, fibrils

Measured: binding

B1: PGA 5 (antibody, IgG1, V domains shown)
VH: EVKLVESGGGLVQPGGSLRLSCVTSGFTFTENYMSWVRQPPGKALEWLGFIRNKANGYTTEYSASVKGRFTISRDNSQSILYLQMNTLRAEDSATYYCARDWDYGSSHAMDYWGQGTSVTVSS
VL: DILLTQSPAILSVSPGERVSFSCRASQNIGTSMHWFQQRTNGSPRLLIKYASESVSGIPSRFSGSGSGTDFTLSINSVESGDIADYYCQQSNSWPFTFGSGTKLEI
binds: pyro-Glu(3-40/42)-Aβ [1] | pyro-Glu(3-40/42)-Aβ [2] | pyro-Glu(3-40/42)-Aβ [3] | [4] | pyro-Glu(3-40/42)-Aβ [5] | [6]
